Source: article PMC12368045

Molecular target: mNedd4-2-GFP (short isoform of mouse Nedd4-2, lacking the C2 domain) (mouse)
Assay: affinity purification with mass spectrometry; GFP-Trap magnetic agarose on lysates of CCD cells transfected with mNedd4-2-GFP or pEGFP-N1 control; MG132 and CQ for 4 h before lysis; 150 mM NaCl, 20 mM Tris pH 7.5, 1% Triton X-100; 4 °C, 3 h; LC-MS/MS, three replicates

binding: binds
B1: phospholipid scramblase 1 (PLSCR1), endogenous in CCD cells (protein, UniProt Q9JJ00 1-328)
chain: MENHSKQTEAPHPGTYMPAGYPPPYPPAAFQGPSDHAAYPIPQAGYQGPPGPYPGPQPGYPVPPGGYAGGGPSGFPVQNQPAYNHPGGPGGTPWMPAPPPPLNCPPGLEYLAQIDQLLVHQQIELLEVLTGFETNNKYEIKNSLGQRVYFAVEDTDCCTRNCCGASRPFTLRILDNLGREVMTLERPLRCSSCCFPCCLQEIEIQAPPGVPVGYVTQTWHPCLPKFTLQNEKKQDVLKVVGPCVVCSCCSDIDFELKSLDEESVVGKISKQWSGFVREAFTDADNFGIQFPLDLDVKMKAVMLGACFLIDFMFFERTGNEEQRSGAWQ

No constants are given. Whether binding was seen depends on the method and setting. In cells and extracts the contact can be indirect. Here binding means that the protein was enriched with, or labelled near, the bait; the list need not be complete.
